The source of these data is patent publication US20230374088A1.

By UniProt entry, the sequences of proteins in these tests, tags left out. Residues count along the entry.
UniProt P10070, residues 1-594: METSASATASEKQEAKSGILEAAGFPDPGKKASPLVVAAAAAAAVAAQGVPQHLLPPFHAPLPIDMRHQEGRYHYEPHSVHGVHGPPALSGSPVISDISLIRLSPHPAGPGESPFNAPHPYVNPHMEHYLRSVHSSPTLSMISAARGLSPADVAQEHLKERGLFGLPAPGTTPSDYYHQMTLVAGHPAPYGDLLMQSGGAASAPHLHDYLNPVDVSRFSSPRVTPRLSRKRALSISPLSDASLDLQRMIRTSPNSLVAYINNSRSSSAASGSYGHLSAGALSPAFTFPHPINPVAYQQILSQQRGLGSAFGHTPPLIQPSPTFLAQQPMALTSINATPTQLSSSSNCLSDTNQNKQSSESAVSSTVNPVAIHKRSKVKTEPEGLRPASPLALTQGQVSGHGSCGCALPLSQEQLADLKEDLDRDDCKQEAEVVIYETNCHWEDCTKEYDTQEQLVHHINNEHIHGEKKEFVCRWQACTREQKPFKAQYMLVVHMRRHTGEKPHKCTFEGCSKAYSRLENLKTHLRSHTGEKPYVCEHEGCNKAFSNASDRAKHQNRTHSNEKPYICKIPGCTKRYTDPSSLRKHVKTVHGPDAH

No constants are given. Whether binding was seen depends on the method and setting. Binding seen in cells or lysates may run through a third protein. Some results given as binding are weak or reduced against the parent protein; the word gives no strength. Sequences can lack the tags named with a protein.

The target of the experiment is c-Myc-Gli2 (1-594aa) (human) (UniProt P10070). The experiment can be described thus: pull-down: co-transfection in Expi293F cells, IP with anti-FLAG magnetic beads, IB anti-c-Myc [panel A].

B1: iii) 362-600 (FLAG-Kif7) (protein, not shown: small tags and cut ends)
chain: ERPPEETASGARGPPRHRSETRIIHRGRRAPGPATASAAAAMRLGAECARYRACTDAAYSLLRELQAEPGLPGAAARKVRDWLCAVEGERSALSSASGPDSGIESASVEDQAAQGAGGRKEDEGAQQLLTLQNQVARLEEENRDFLAALEDAMEQYKLQSDRLREQQEEMVELRLRLELVRPGWGGPRLLNGLPPGSFVPRPHTAPLGGAHAHVLGMVPPACLPGDEVGSEQRGEQVTN
Take B1: the binding result was “binds”.
